The other results are listed elsewhere or left out. Most values lie at the level of the controls, where differences are scatter.

Protein sequences, listed by entry. Tags and fused reporters are not part of them. Lines headed by an entry give the natural chain unless they say otherwise; changes in a name come on top.
UniProt Q99618: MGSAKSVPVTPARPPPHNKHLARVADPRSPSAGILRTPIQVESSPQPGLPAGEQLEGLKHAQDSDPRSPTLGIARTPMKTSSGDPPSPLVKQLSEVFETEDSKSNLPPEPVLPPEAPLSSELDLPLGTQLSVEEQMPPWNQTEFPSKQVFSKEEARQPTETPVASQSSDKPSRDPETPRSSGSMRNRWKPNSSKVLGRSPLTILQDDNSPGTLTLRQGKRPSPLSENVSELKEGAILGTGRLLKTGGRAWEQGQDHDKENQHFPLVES
UniProt Q9BRG2: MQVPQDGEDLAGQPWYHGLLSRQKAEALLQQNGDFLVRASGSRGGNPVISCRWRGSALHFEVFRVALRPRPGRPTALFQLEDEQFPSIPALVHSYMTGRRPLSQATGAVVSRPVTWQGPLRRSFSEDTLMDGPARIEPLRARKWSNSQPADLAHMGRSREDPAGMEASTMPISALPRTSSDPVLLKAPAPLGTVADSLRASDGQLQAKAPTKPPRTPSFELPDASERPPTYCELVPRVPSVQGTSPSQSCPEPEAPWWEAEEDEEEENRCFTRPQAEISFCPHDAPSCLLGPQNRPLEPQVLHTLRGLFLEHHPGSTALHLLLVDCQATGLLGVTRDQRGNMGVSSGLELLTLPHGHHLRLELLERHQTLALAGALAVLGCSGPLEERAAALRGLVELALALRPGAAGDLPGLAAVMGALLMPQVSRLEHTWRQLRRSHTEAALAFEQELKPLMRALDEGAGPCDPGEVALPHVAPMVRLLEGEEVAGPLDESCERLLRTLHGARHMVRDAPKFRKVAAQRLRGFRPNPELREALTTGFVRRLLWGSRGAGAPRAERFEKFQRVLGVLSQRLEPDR
UniProt Q9BUB5: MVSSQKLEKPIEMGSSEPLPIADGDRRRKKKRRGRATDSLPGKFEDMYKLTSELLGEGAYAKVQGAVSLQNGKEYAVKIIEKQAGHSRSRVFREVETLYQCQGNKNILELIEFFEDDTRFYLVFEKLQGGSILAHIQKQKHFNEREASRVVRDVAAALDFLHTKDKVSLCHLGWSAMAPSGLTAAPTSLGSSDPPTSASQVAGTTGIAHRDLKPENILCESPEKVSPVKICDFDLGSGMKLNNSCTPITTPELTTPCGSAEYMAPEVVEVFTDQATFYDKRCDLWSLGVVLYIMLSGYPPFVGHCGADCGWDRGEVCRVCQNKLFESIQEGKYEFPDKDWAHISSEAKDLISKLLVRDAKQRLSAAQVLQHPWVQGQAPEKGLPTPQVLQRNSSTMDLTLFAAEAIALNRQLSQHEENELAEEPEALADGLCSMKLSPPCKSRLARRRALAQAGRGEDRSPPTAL
UniProt Q9BQ69: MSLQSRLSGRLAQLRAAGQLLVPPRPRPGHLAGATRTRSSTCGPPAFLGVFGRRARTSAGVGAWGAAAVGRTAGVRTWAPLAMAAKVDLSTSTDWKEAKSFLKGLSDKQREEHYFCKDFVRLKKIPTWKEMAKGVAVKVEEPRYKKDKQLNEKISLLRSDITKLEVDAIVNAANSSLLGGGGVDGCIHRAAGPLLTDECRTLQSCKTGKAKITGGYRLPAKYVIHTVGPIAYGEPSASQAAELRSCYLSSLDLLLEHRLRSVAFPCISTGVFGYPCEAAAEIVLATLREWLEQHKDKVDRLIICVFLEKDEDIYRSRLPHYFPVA
UniProt Q99471, whole entry: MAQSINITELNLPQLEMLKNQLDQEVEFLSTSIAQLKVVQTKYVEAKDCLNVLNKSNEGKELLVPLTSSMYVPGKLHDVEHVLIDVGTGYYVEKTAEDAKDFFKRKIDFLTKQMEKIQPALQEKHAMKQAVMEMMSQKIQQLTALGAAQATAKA
UniProt Q9BUL8: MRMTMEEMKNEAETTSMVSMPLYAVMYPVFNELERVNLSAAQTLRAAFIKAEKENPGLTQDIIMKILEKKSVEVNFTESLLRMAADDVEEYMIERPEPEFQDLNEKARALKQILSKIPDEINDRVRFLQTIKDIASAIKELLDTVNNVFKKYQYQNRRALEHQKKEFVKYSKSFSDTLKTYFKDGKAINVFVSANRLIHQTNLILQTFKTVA
UniProt Q9BRT8: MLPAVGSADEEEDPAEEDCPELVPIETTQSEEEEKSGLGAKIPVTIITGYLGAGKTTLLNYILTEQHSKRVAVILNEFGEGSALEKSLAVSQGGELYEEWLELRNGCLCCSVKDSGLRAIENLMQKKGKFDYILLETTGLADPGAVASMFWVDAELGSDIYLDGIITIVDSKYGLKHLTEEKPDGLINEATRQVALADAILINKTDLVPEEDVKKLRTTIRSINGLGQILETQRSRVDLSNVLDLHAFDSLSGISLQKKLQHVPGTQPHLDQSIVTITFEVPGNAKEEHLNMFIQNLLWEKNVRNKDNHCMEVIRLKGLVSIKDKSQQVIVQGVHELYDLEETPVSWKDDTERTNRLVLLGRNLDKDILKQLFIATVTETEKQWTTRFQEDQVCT
UniProt Q9BTL4: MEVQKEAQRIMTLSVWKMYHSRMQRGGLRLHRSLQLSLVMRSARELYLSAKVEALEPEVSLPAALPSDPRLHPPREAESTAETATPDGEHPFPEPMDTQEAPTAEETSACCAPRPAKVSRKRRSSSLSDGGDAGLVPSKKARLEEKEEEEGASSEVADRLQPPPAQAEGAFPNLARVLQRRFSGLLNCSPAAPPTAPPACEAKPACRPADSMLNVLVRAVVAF

Compound in the assay: Cc1nc(Nc2ncc(C(=O)Nc3c(C)cccc3Cl)s2)cc(N2CCN(CCO)CC2)n1 [dasatinib]
Description: log2 fold change of tryptic peptide abundance, ligand vs vehicle (limited proteolysis) (log2 ratio); higher = more trypsin-susceptible (destabilized). The settings on record: ligand concentration: 5 uM; sample: K562 cleared lysate.
As to “CDCA3 (peptide sequence: SVPVTPARPPPHNK, peptide start residue: 6) (UniProt Q99618)”, the log2 fold change amounted to 0.757.
For the target “SH2D3A (peptide sequence: GNMGVSSGLELLTLPHGHHLR, peptide start residue: 340) (UniProt Q9BRG2)”, the log2 fold change is -0.626.
Regarding “UniProt Q9BUB5 (peptide sequence: VQGAVSLQNGK, peptide start residue: 63)”, the log2 fold change came out at 0.18.
For “MACROD1 (peptide sequence: AAGPLLTDECR, peptide start residue: 190) (UniProt Q9BQ69)” the value was -0.103; for “PFDN5 (peptide sequence: LHDVEHVLIDVGTGYYVEK, peptide start residue: 76) (UniProt Q99471)”, 0.349; for “PDCD10 (peptide sequence: LIHQTNLILQTFK, peptide start residue: 197) (UniProt Q9BUL8)”, -0.0869.
With “CBWD1 (peptide sequence: NGCLCCSVKDSGLR, peptide start residue: 105) (UniProt Q9BRT8)” the figure was -0.134; with “UniProt Q9BTL4 (peptide sequence: IMTLSVWK, peptide start residue: 10)”, -0.0879.
